# Results from PubChem BioAssay AID1347076 (National Center for Advancing Translational Sciences (NCATS), 2019).
# Several values for one entry are separate records, joined by “and”; a condition that tells them apart may be missing. Identical values can stand only once. Among all 400,000 compounds or so, about 13,000 (3.2%) were called active. The shares of active, inactive and inconclusive entries below differ from those in the screen. Calls follow the shape of the dose curve; as a rule, active = well fitted cell-killing curve with a large enough effect; inconclusive = small, poorly fitted or top-dose-only effect, or effect the other way; inactive = flat fitted curve, though single readings scatter. Potencies of inconclusive entries are doubtful fits and often do not repeat.
# Assay: qHTS assay for MDR1-selective chemotherapeutics: Primary screen using the drug-selected MDR subline cells KB-V1; also: nearly all actives have a fitted effect of over 60% in size
# Details: KB-V1 MDR cells viability, CellTiter-Glo, 72 h; series mostly up to 46.1 µM
# How it was run: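 Compound-treated KB-V1 multidrug-resistant cells, 72 h, 37 degrees C; viability by CellTiter-Glo. Fitted qHTS curves give the values.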
# Potency is read from the fitted curve at half-maximal effect.
row,SMILES,Potency
1,CC(C)C[C@H]1COc2cc(N(C)CCO)ccc2S(=O)(=O)N1,"inconclusive: 32.6 µM [rising, single point]"
2,Cc1cc(C)n(-c2ccc(OCC(=O)O)nn2)n1,"inconclusive: 29.1 µM [rising, single point]"
3,O=C(CNS(=O)(=O)c1ccccc1)OCC(=O)c1c[nH]c2ccccc12,inactive
4,COc1ccc(NS(=O)(=O)c2cc(NC(=O)c3cnccn3)ccc2N2CCCC2)cc1,"inconclusive: 29.1 µM [cytotoxic, single point]"
5,CCOC(=O)Cn1c(=O)oc2cc(S(=O)(=O)N3CCN(c4cc(C)ccc4C)CC3)ccc21,"inconclusive: 14.6 µM [rising, single point]"
6,CCCOc1ncnc2c1[nH]c1ccc(C)cc12,"inconclusive: 6.51 µM [cytotoxic, partial curve]"
7,O=C(COc1ccc(C(=O)NCCc2ccccc2)cc1)Nc1ccccc1,"inconclusive: 18.4 µM [cytotoxic, partial curve]"
8,COc1cccc(C(c2ccccc2)N2C3CCC2CN(S(=O)(=O)c2ccc(F)cc2)CC3)c1 (configuration not stated),"inconclusive: 25.9 µM [cytotoxic, single point]"
9,Cc1ccc(/C=C(\C#N)C(=O)NCc2ccco2)o1,"inconclusive: 29.1 µM [rising, partial curve, poor fit]"
10,CN(C)CCNC(=O)c1ccc2c(c1)N(Cc1c(F)cccc1Cl)C(=O)c1ccccc1S2,"inconclusive: 0.731 µM [cytotoxic, full curve]"
11,C[C@@H]1CN([C@@H](C)CO)C(=O)CCCn2nncc2CO[C@@H]1CN(C)S(C)(=O)=O,"inconclusive: 1.64 µM [rising, full curve, poor fit]"
12,COc1ccccc1-n1ccnc1SCC(=O)NCc1ccco1,"inconclusive: 18.4 µM [cytotoxic, single point]"
13,COC(=O)c1cc2oc3ccccc3c2n1CC(=O)Nc1ccc(C)cc1C,"inconclusive: 29.1 µM [rising, single point]"
14,COc1ccccc1CN1CCNC(=O)C1CC(=O)NCc1cn(C)nc1C (configuration not stated),"inconclusive: 2.59 µM [rising, partial curve, poor fit]"
15,Cc1ccc(C(=O)Nc2cccc(C(F)(F)F)c2)cc1NC(=O)c1[nH]cnc1C(N)=O,"inconclusive: 29.1 µM [rising, single point]"
16,CC(C)CNC1CS(=O)(=O)CC1O (configuration not stated),inactive
17,COc1ccc(NS(=O)(=O)c2cccc(C(=O)NCC3(N4CCCCC4)CCCCC3)c2)cc1,"inconclusive: 29.1 µM [cytotoxic, single point]"
18,COc1cc(Cl)c(CN2CCC(CO)(CCOc3ccccc3)CC2)cc1OC,inactive
19,Cn1c(=O)n(Cc2ccccc2)c(=O)c2c1nc1n2CCN1Cc1ccco1,inactive
20,O=C(NC(=S)N1CCN(c2ccc([N+](=O)[O-])cc2)CC1)c1ccc(F)cc1,"inconclusive: 20.6 µM [cytotoxic, single point]"
21,COCC(O)CSc1c([N+](=O)[O-])nc(C)n1Cc1ccc(OC)c([N+](=O)[O-])c1 (configuration not stated),"inconclusive: 14.6 µM [rising, partial curve, poor fit]"

row,SMILES,Potency
1,Cn1c(-c2ccc(Cl)nc2)nc2cc(Cl)ccc21,"inconclusive: 16.4 µM [cytotoxic, single point]"
2,CC(C)(C)c1ccc(CC(=O)N2CCC2(C)C(=O)Nc2cnc3ccccc3c2)cc1 (configuration not stated),active: 16.4 µM
3,COc1cccc(NC(=O)Cc2cccs2)c1,"inconclusive: 29.1 µM [rising, single point]"
4,CCN1C(=O)c2cccc3c(S(=O)(=O)Nc4ccc(OC)cc4OC)ccc1c23,"inconclusive: 9.2 µM [cytotoxic, partial curve]"
5,COc1ccc(CN2CCN(C(=O)c3cc(-c4cccnc4)nc4ccc(Cl)cc34)CC2)c(OC)c1OC,"inconclusive: 29.1 µM [cytotoxic, single point]"
6,Cc1cc(NC(=O)CSc2nc3ccccc3[nH]2)n(-c2ccccc2)n1,"inconclusive: 25.9 µM [cytotoxic, single point]"
7,COc1ccc(-c2nnc(SCc3cc(C)cc(C)c3)o2)cc1,active: 20.6 µM
8,CN(C)c1ccc(C2C=Cc3ccccc32)c2ccccc12 (configuration not stated),inactive
9,COc1ccc(CNC(=O)C(C)n2c(=O)cc(C)c3c(C)nn(-c4ccccc4)c32)cc1 (configuration not stated),inactive
10,CCOC(=O)N1CCN(C(=O)COc2cccc3c2CCN(CC)C3=O)CC1,inactive
11,C=CC[C@@H](Cc1ccc(F)cc1)C(=O)OC[C@@H]1CCCN1C(=O)[C@@H](CC=C)CC(=O)N[C@@H](CO)Cc1ccccc1,inactive
12,CC1(C)Cc2c(cnn2-c2cccc(F)c2)C(NC(=O)CSc2ccncc2)C1 (configuration not stated),"inconclusive: 7.31 µM [cytotoxic, partial curve]"
13,CCCCn1c(SCC(=O)NCc2ccc(C)cc2)nc2c(sc3ccccc32)c1=O,"inconclusive: 16.4 µM [rising, partial curve, poor fit]"
14,Cc1ccccc1-c1nc(Cc2ccccc2)no1,inactive
15,O=C(CSc1nnc(-c2ccco2)n1Cc1ccccc1)NC(=O)NCc1ccccc1,"inconclusive: 20.6 µM [cytotoxic, partial curve]"
16,CCCCNC(=O)COC(=O)c1ccc(SC)cc1OC,inactive
17,CCN1CCN(c2cc(C)c3cc(NC(=O)c4ccc(OC)c(OC)c4)ccc3n2)CC1,"active: 4.11 µM and inconclusive: 9.2 µM [cytotoxic, partial curve]"
18,CCCCCN1C=CC=C/C1=C\C=C(C#N)C#N,"inconclusive: 14.6 µM [cytotoxic, partial curve, poor fit]"
19,COc1ccc(C)cc1Nc1nc(N)c2cc(OC)c(OC)cc2n1,"inconclusive: 20.6 µM [cytotoxic, single point] and inconclusive: 16.4 µM [cytotoxic, single point]"
20,CC(=O)c1cccc(NC(=O)c2nc(-c3ccccc3)n(-c3ccccc3C)n2)c1,inactive
21,COc1ccc(-c2ccc3c(c2)C2CC3CCN2S(=O)(=O)c2ccccc2C)cc1 (configuration not stated),inactive
